Data as given in the supplement of paper PMC4604168 (melanoma cell lines).
Some of the results follow. Single values are uncertain, as repeats are few or missing.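 Cells were imaged in 1,536-well plates, and nuclei stained with an antibody against cleaved PARP were counted against all DNA-stained nuclei to give the apoptosis fraction. Screening doses were chosen to leave most cells alive, and resting and induced cleaved-PARP levels differ strongly between cell lines.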

Experiments:
Test in all cases: cleaved PARP positive nuclei fraction relative to DMSO control; melanoma cells; higher = more apoptosis
Conditions in all cases: library dose: low library concentration; 72 h
501Mel = test system: 501Mel
A101D = test system: A101D
A2058 = test system: A2058
C32 = test system: C32
CBRC008 = test system: CBRC008 (line from a melanoma biopsy)
CBRC014 = test system: CBRC014 (line from a melanoma biopsy)
CBRC016 = test system: CBRC016 (line from a melanoma biopsy)
CBRC017 = test system: CBRC017 (line from a melanoma biopsy)
A375 = test system: A375
CBRC013 = test system: CBRC013 (line from a melanoma biopsy)

Structure (SMILES)	cleaved PARP positive nuclei fraction (501Mel)	cleaved PARP positive nuclei fraction (A101D)	cleaved PARP positive nuclei fraction (A2058)	cleaved PARP positive nuclei fraction (C32)	cleaved PARP positive nuclei fraction (CBRC008)	cleaved PARP positive nuclei fraction (CBRC014)	cleaved PARP positive nuclei fraction (CBRC016)	cleaved PARP positive nuclei fraction (CBRC017)	cleaved PARP positive nuclei fraction (A375)	cleaved PARP positive nuclei fraction (CBRC013)
Cn1cc(C2=C(c3cn(C4CCN(Cc5ccccn5)CC4)c4ccccc34)C(=O)NC2=O)c2ccccc21 [Enzastaurin] + CCN(CC)CCCCNc1ncc2cc(-c3cc(OC)cc(OC)c3)c(NC(=O)NC(C)(C)C)nc2n1 [PD173074] (first compound 0.8 µM, partner dose 0.1 µM)	173%	31.6%	41.4%	252%	288%	122%	135%	158%	–	–
Nc1cccc2c1CN(C1CCC(=O)NC1=O)C2=O (centres undefined) [lenalidomide] + C/C(O)=C(\C#N)C(=O)Nc1cc(Br)ccc1Br [LFM-A13] (first compound 1 µM, partner dose 2 µM)	148%	52.2%	102%	125%	–	82.8%	73.1%	144%	134%	34.2%
O=C(Oc1ccc([N+](=O)[O-])cc1)N1CCC(C(O)(c2ccc3c(c2)OCO3)c2ccc3c(c2)OCO3)CC1 + CCCCCCCCCCCC1=C(O)C(=O)C=C(O)C1=O [Embelin] (first compound 1 µM, partner dose 1.2 µM)	82.2%	129%	42.4%	253%	–	92.2%	65.8%	78.5%	147%	39.8%
OCCn1cc(-c2cnc3nnn(Cc4ccc5ncccc5c4)c3n2)cn1 + C/C(O)=C(\C#N)C(=O)Nc1cc(Br)ccc1Br [LFM-A13] (first compound 1 µM, partner dose 2 µM)	95.9%	113%	29.1%	62.9%	–	92.7%	107%	189%	153%	23.1%
O=C(Oc1ccc([N+](=O)[O-])cc1)N1CCC(C(O)(c2ccc3c(c2)OCO3)c2ccc3c(c2)OCO3)CC1 + CC(C)CCN1c2nc(Nc3cc(F)c(O)c(F)c3)ncc2N(C)C(=O)C1C [BID1870] (first compound 1 µM, partner dose 0.2 µM)	48.3%	65.7%	91.8%	59.9%	–	117%	34.7%	83.5%	47.4%	81.7%
C[As](C)SC[C@H](NC(=O)CC[C@H](N)C(=O)O)C(=O)NCC(=O)O [Darinaparsin] + CCN(CC)CCCCNc1ncc2cc(-c3cc(OC)cc(OC)c3)c(NC(=O)NC(C)(C)C)nc2n1 [PD173074] (first compound 0.4 µM, partner dose 0.1 µM)	21.1%	165%	85.1%	97.6%	–	80.8%	14.7%	67%	20.6%	176%
C/C(O)=C(\C#N)C(=O)Nc1cc(Br)ccc1Br + O=c1cc(-c2cccc3c2Sc2ccccc2S3)oc(N2CCOCC2)c1 [KU55933] (first compound 2 µM, partner dose 1 µM)	41.7%	280%	101%	128%	–	104%	23.4%	83%	89.3%	22.2%
C[As](C)SC[C@H](NC(=O)CC[C@H](N)C(=O)O)C(=O)NCC(=O)O [Darinaparsin] + CC(C)CCN1c2nc(Nc3cc(F)c(O)c(F)c3)ncc2N(C)C(=O)C1C [BID1870] (first compound 0.4 µM, partner dose 0.2 µM)	49.7%	79.9%	94.2%	64.1%	–	97.1%	111%	72.6%	234%	188%
Cc1ccc(NC(=O)c2cccc(N(C)C)c2)cc1NC(=O)c1ccc(O)cc1 + O=C(Oc1ccc([N+](=O)[O-])cc1)N1CCC(C(O)(c2ccc3c(c2)OCO3)c2ccc3c(c2)OCO3)CC1 [JZL184] (first compound 2 µM, partner dose 1 µM)	88.5%	213%	100%	52.4%	–	149%	82.7%	86.6%	122%	110%
CN(NC(=O)CC(=O)NN(C)C(=S)c1ccccc1)C(=S)c1ccccc1 + O=C(Oc1ccc([N+](=O)[O-])cc1)N1CCC(C(O)(c2ccc3c(c2)OCO3)c2ccc3c(c2)OCO3)CC1 [JZL184] (first compound 0.006 µM, partner dose 1 µM)	322%	49%	150%	33.7%	–	536%	240%	136%	1140%	508%
O=C(CCCCCCC(=O)Nc1ccccc1)NO [vorinostat] + Cc1cc(SCc2sc(-c3ccc(C(F)(F)F)c(F)c3)nc2C)ccc1OCC(=O)O [GW0742] (first compound 0.08 µM, partner dose 2 µM)	70.7%	216%	73.5%	110%	–	94.8%	74.5%	86.3%	93.4%	125%
COc1cc(Nc2ncc(F)c(Nc3ccc4c(n3)NC(=O)C(C)(C)O4)n2)cc(OC)c1OC [Tamatinib] + C/C(O)=C(\C#N)C(=O)Nc1cc(Br)ccc1Br [LFM-A13] (first compound 0.4 µM, partner dose 2 µM)	125%	299%	157%	157%	–	106%	105%	227%	174%	157%
Cn1nnc2c(C(N)=O)ncn2c1=O [temozolomide] + C/C(O)=C(\C#N)C(=O)Nc1cc(Br)ccc1Br [LFM-A13] (first compound 2 µM, partner dose 2 µM)	144%	159%	61.8%	37.2%	–	217%	84.7%	97.2%	86.7%	98.4%
NCC(=O)Nc1ccc(-n2nc(C(F)(F)F)cc2-c2ccc3c(ccc4ccccc43)c2)cc1 + O=C(Oc1ccc([N+](=O)[O-])cc1)N1CCC(C(O)(c2ccc3c(c2)OCO3)c2ccc3c(c2)OCO3)CC1 [JZL184] (first compound 1 µM, partner dose 1 µM)	336%	75.8%	70.3%	123%	–	92.5%	27.3%	103%	671%	185%
Cc1cc(SCc2sc(-c3ccc(C(F)(F)F)c(F)c3)nc2C)ccc1OCC(=O)O + O=C1NC(=O)/C(=C/c2ccc(-c3ccc(F)cc3O)o2)S1 [AS252424] (first compound 2 µM, partner dose 1 µM)	82.6%	120%	162%	72%	–	102%	50.1%	271%	135%	152%
COc1cc2c(Oc3ccc4[nH]c(C)cc4c3F)ncnc2cc1OCCCN1CCCC1 [cediranib] + O=C(Oc1ccc([N+](=O)[O-])cc1)N1CCC(C(O)(c2ccc3c(c2)OCO3)c2ccc3c(c2)OCO3)CC1 [JZL184] (first compound 0.4 µM, partner dose 1 µM)	73.4%	149%	77.3%	120%	–	129%	104%	63%	35.6%	295%
O=S(=O)(c1ccccc1)N(CC(F)(F)F)c1ccc(C(O)(C(F)(F)F)C(F)(F)F)cc1 + Cc1cc(SCc2sc(-c3ccc(C(F)(F)F)c(F)c3)nc2C)ccc1OCC(=O)O [GW0742] (first compound 1.4 µM, partner dose 2 µM)	137%	115%	69.2%	134%	–	96.8%	60.5%	76.3%	154%	35.8%
COc1ccc2c(c1)CCC1C2CCC2(C)C(NCCCCCCN3C(=O)C=CC3=O)CCC12 (centres undefined) + C/C(O)=C(\C#N)C(=O)Nc1cc(Br)ccc1Br [LFM-A13] (first compound 0.4 µM, partner dose 2 µM)	82.8%	125%	84.7%	60.2%	–	101%	184%	81%	209%	86.4%
O=C(Nc1ccccc1)c1cc([N+](=O)[O-])ccc1Cl + C/C(O)=C(\C#N)C(=O)Nc1cc(Br)ccc1Br [LFM-A13] (first compound 2 µM, partner dose 2 µM)	76.2%	55.2%	93.6%	116%	–	86.1%	353%	211%	71.7%	127%
C[As](C)SC[C@H](NC(=O)CC[C@H](N)C(=O)O)C(=O)NCC(=O)O [Darinaparsin] + Oc1nc(-c2ccc(C(F)(F)F)cc2)nc2c1CSCC2 [XAV939] (first compound 0.4 µM, partner dose 2 µM)	75%	246%	128%	28.9%	–	88.4%	45.3%	57.9%	199%	129%
CO[C@@H]1[C@H](N(C)C(=O)c2ccccc2)C[C@H]2O[C@]1(C)n1c3ccccc3c3c4c(c5c6ccccc6n2c5c31)C(=O)NC4 [Midostaurin] + Cc1cc(SCc2sc(-c3ccc(C(F)(F)F)c(F)c3)nc2C)ccc1OCC(=O)O [GW0742] (first compound 0.08 µM, partner dose 2 µM)	73.3%	94.9%	70.4%	133%	–	110%	206%	94.4%	193%	448%
Cc1nc(Nc2ncc(C(=O)Nc3c(C)cccc3Cl)s2)cc(N2CCN(CCO)CC2)n1 [dasatanib] + Cc1cc(SCc2sc(-c3ccc(C(F)(F)F)c(F)c3)nc2C)ccc1OCC(=O)O [GW0742] (first compound 0.004 µM, partner dose 2 µM)	62.8%	150%	230%	249%	–	128%	–	119%	277%	112%
C#Cc1cccc(Nc2ncnc3cc(OCCOC)c(OCCOC)cc23)c1 [erlotinib] + C/C(O)=C(\C#N)C(=O)Nc1cc(Br)ccc1Br [LFM-A13] (first compound 0.8 µM, partner dose 2 µM)	75%	187%	80%	83.6%	–	80.6%	65.6%	113%	266%	46.5%
Cc1ccc(NC(=O)c2cccc(N(C)C)c2)cc1NC(=O)c1ccc(O)cc1 + Cc1cc(SCc2sc(-c3ccc(C(F)(F)F)c(F)c3)nc2C)ccc1OCC(=O)O [GW0742] (first compound 2 µM, partner dose 2 µM)	203%	97.3%	77%	113%	–	114%	105%	115%	125%	67.3%

Part of the list above, comma-delimited.
Structure (SMILES),cleaved PARP positive nuclei fraction (501Mel),cleaved PARP positive nuclei fraction (A101D),cleaved PARP positive nuclei fraction (A2058),cleaved PARP positive nuclei fraction (C32),cleaved PARP positive nuclei fraction (CBRC008),cleaved PARP positive nuclei fraction (CBRC014),cleaved PARP positive nuclei fraction (CBRC016),cleaved PARP positive nuclei fraction (CBRC017),cleaved PARP positive nuclei fraction (A375),cleaved PARP positive nuclei fraction (CBRC013)
"CO[C@@H]1[C@H](N(C)C(=O)c2ccccc2)C[C@H]2O[C@]1(C)n1c3ccccc3c3c4c(c5c6ccccc6n2c5c31)C(=O)NC4 [Midostaurin] + Cc1cc(SCc2sc(-c3ccc(C(F)(F)F)c(F)c3)nc2C)ccc1OCC(=O)O [GW0742] (first compound 0.08 µM, partner dose 2 µM)",73.3%,94.9%,70.4%,133%,–,110%,206%,94.4%,193%,448%
"Cc1nc(Nc2ncc(C(=O)Nc3c(C)cccc3Cl)s2)cc(N2CCN(CCO)CC2)n1 [dasatanib] + Cc1cc(SCc2sc(-c3ccc(C(F)(F)F)c(F)c3)nc2C)ccc1OCC(=O)O [GW0742] (first compound 0.004 µM, partner dose 2 µM)",62.8%,150%,230%,249%,–,128%,–,119%,277%,112%
